We go through nine molecules from PMC6748129.

Protein sequences, listed by entry. Tags and fused reporters are not part of them.
UniProt Q9UBN7: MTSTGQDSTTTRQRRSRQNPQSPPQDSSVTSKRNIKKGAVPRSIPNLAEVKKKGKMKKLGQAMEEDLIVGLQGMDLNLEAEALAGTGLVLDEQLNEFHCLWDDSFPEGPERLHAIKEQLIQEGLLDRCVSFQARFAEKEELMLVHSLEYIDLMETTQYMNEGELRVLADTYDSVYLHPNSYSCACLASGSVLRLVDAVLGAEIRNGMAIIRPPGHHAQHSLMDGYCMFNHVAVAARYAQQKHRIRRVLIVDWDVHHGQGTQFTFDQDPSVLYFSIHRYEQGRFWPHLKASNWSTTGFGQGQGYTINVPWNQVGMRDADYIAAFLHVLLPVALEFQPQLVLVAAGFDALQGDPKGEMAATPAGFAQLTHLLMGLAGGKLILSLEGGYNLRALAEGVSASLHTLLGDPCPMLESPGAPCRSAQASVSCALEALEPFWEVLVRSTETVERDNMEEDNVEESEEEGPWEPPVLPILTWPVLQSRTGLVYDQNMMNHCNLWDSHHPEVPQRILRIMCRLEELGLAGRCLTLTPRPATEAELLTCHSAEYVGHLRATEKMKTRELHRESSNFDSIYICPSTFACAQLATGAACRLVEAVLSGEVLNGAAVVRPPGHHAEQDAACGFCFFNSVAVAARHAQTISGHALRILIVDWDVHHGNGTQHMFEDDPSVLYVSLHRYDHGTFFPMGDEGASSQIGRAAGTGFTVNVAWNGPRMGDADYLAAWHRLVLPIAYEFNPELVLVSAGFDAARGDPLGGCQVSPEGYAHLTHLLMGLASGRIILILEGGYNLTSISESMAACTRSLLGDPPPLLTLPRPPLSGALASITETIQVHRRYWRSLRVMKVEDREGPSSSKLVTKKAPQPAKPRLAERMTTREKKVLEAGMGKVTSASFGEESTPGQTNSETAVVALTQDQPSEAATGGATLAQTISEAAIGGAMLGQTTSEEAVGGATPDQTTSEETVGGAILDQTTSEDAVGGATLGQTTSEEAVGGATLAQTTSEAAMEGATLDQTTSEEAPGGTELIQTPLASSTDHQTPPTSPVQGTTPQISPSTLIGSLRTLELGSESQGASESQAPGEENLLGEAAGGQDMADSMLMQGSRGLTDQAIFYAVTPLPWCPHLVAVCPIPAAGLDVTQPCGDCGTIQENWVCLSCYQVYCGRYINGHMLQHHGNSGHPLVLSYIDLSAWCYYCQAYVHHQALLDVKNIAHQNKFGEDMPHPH

Test [1] deals with T1, endogenous RASSF1A (HeLa) (human (endogenous in HeLa)) (UniProt Q9NS23).
T1 sequence: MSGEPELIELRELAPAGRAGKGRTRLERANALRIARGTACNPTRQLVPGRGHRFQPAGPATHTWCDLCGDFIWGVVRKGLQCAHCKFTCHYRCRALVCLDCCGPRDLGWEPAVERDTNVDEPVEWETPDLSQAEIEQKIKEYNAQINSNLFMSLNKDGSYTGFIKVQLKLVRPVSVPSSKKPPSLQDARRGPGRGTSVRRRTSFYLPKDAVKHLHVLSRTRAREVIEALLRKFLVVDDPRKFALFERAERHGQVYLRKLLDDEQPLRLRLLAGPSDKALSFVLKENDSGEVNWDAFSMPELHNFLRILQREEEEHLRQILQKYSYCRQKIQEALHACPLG
The test is described as follows: co-IP; HeLa cells transiently overexpressing Flag-HDAC6; endogenous RASSF1A precipitated; immunoblot.

The target of test [2] is T2, HA-RASSF1A (human) (UniProt Q9NS23).
T2 sequence: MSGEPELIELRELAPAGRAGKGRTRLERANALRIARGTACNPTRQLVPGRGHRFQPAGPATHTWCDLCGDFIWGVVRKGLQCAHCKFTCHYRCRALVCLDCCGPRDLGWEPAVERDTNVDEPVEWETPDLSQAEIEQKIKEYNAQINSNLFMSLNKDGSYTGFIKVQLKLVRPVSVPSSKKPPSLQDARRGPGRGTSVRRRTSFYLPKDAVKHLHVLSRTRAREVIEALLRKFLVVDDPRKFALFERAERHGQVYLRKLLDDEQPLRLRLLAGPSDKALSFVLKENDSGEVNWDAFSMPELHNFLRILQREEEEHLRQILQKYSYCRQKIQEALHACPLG
Kind of test: co-IP; lysates of 293T cells transiently expressing both tagged partners; immunoblot. Background: A western blot detects proteins with antibodies after separation by electrophoresis.

For test [3], the target named is HDAC6 (HeLa lysate, Fig. 6n) (UniProt Q9UBN7). Kind of test: co-IP; lysates of HeLa cells transiently expressing GFP fused RASSF1A constructs; HDAC6 precipitated; immunoblot.
Test [4] has as its target T3, endogenous MST1 (293T) (human (endogenous in 293T)) (UniProt Q13043).
T3 sequence: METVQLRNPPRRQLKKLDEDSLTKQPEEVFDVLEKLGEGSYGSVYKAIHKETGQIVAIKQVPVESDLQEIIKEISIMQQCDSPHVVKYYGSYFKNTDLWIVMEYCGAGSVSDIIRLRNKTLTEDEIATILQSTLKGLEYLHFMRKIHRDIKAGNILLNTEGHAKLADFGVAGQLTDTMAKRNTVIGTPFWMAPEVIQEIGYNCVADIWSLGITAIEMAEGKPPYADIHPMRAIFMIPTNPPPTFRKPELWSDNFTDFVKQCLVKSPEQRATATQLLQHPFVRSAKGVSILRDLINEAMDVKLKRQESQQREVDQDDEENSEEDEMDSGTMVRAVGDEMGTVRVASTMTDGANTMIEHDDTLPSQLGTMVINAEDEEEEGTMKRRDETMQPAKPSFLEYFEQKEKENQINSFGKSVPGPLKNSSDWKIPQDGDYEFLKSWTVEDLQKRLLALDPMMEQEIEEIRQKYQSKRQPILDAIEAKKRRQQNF
Kind of test: co-IP; lysates of 293T cells transiently expressing GFP-fused RASSF1A fragments; the other partner endogenous; immunoblot.

The target of test [5] is T4, HA-MAP1S full length (human) (UniProt Q66K74).
T4 sequence: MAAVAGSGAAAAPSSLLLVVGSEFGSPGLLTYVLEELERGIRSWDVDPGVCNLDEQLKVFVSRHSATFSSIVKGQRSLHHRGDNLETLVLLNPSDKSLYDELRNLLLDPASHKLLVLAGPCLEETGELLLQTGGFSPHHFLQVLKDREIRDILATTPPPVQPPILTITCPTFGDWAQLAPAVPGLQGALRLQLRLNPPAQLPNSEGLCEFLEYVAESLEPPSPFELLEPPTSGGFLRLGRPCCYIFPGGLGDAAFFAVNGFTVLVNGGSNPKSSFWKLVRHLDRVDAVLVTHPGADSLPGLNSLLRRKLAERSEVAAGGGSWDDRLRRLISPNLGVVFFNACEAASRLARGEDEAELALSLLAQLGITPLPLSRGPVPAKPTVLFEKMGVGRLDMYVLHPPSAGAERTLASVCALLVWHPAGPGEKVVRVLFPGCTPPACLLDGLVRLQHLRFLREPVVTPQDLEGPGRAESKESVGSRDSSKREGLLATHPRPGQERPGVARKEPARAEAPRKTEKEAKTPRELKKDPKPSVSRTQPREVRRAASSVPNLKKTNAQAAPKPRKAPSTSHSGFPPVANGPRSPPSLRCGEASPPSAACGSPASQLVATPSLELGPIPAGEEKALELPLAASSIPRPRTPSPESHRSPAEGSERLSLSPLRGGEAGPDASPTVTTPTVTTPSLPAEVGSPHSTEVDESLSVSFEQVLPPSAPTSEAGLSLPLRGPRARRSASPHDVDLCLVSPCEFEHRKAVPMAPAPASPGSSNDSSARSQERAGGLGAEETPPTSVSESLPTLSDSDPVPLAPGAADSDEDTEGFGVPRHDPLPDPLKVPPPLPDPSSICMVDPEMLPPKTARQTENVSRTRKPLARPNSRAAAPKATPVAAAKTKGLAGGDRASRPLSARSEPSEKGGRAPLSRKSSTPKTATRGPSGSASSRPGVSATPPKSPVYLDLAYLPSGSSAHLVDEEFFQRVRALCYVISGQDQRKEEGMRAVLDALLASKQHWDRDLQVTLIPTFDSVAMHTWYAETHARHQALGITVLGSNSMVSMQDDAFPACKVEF
Kind of test: co-IP; Fig. 7c-g; cells and tags not told in the legend; immunoblot.

Test [6] addresses Flag-HDAC6 (in 293T) (UniProt Q9UBN7). Kind of test: co-IP; lysates of 293T cells transiently expressing both tagged partners; immunoblot.
Test [7] deals with T5, HA-HBD (R653-Q855 fragment of MAP1S) (human) (UniProt Q66K74).
T5 sequence: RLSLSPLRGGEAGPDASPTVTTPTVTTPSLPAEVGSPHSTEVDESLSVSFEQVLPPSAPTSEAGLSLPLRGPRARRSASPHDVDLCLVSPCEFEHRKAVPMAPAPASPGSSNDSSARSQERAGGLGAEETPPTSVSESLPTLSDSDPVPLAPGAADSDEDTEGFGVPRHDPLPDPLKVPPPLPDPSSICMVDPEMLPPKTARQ
The test is described as above.

The target in test [8] is T4, HA-MAP1S full length (human). The description is as above.
Test [9] has as its target T2, HA-RASSF1A (human). Kind of test: co-IP; Fig. 7c-g; cells and tags not told in the legend; immunoblot.
Test [10] deals with T6, endogenous MAP1S (293T) (human (endogenous in 293T)) (UniProt Q66K74).
T6 sequence: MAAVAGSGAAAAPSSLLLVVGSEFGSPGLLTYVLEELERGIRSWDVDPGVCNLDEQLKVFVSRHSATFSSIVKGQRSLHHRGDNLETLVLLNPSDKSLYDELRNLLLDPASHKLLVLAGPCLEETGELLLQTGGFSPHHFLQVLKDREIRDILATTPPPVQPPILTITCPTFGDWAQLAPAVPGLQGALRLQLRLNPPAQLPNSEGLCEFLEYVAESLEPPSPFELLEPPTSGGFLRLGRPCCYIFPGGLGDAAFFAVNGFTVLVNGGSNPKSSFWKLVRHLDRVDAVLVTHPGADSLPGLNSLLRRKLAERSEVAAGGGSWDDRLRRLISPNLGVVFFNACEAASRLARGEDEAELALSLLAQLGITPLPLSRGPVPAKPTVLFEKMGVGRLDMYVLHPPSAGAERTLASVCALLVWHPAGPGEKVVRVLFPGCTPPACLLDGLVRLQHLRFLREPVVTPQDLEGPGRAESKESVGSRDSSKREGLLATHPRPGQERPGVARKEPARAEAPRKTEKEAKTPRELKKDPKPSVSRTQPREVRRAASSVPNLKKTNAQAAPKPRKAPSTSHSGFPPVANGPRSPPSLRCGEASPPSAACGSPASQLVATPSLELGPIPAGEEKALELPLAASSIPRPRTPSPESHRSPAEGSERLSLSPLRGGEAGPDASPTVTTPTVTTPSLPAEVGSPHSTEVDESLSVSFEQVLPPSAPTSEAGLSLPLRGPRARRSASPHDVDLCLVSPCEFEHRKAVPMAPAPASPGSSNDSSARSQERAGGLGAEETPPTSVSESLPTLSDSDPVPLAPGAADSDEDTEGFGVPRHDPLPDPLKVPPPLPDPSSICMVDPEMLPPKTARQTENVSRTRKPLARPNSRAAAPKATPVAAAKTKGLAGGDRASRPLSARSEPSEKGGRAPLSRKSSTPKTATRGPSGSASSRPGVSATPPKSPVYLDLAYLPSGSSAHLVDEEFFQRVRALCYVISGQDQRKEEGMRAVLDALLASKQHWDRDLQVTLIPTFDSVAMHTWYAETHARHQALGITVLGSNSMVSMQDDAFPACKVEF
Kind of test: co-IP; lysates of 293T cells transiently expressing GFP-fused RASSF1A fragments; the other partner endogenous; immunoblot.

These are yes or no findings as the source states them, for the method shown. Binding seen in cells or lysates may run through a third protein. Some entries that bind do so weakly or less than the wild type. For some of these results: Sequences can lack the tags named with a protein.

Regarding “Flag-HDAC6 (in HeLa) (from UniProt Q9UBN7 1-1215) (enzyme)”, the binding result in [1] was “binds”.
Turning to “Flag-HDAC6 (in 293T) (from UniProt Q9UBN7 1-1215) (enzyme)”, in test [2], the binding entry is reported as “binds”.
As for MSLNKDGSYTGFIKVQLKLVRPVSVPSSKKPPSLQ (domain or fragment, UniProt Q9NS23-2 152-186) [GFP-fused RASSF1A fragment F2 (amino acids 152-186)], the binding entry in test [3] was “binds”.

B1: GFP-fused RASSF1A fragment F4 (SARAH domain, amino acids 288-340) (domain or fragment, UniProt Q9NS23-2 288-340)
chain: SGEVNWDAFSMPELHNFLRILQREEEEHLRQILQKYSYCRQKIQEALHACPLG
As to B1, the binding entry in test [4] is “binds”.

B2: HA-RASSF1A (protein, UniProt Q9NS23-2 1-340)
chain: MSGEPELIELRELAPAGRAGKGRTRLERANALRIARGTACNPTRQLVPGRGHRFQPAGPATHTWCDLCGDFIWGVVRKGLQCAHCKFTCHYRCRALVCLDCCGPRDLGWEPAVERDTNVDEPVEWETPDLSQAEIEQKIKEYNAQINSNLFMSLNKDGSYTGFIKVQLKLVRPVSVPSSKKPPSLQDARRGPGRGTSVRRRTSFYLPKDAVKHLHVLSRTRAREVIEALLRKFLVVDDPRKFALFERAERHGQVYLRKLLDDEQPLRLRLLAGPSDKALSFVLKENDSGEVNWDAFSMPELHNFLRILQREEEEHLRQILQKYSYCRQKIQEALHACPLG
Turning to B2, the binding entry in test [5], in test [6], in [7] and in [8] was “binds” in each case.

B3: HA-HBD (R653-Q855 fragment of MAP1S) (domain or fragment, UniProt Q66K74 653-855)
chain: RLSLSPLRGGEAGPDASPTVTTPTVTTPSLPAEVGSPHSTEVDESLSVSFEQVLPPSAPTSEAGLSLPLRGPRARRSASPHDVDLCLVSPCEFEHRKAVPMAPAPASPGSSNDSSARSQERAGGLGAEETPPTSVSESLPTLSDSDPVPLAPGAADSDEDTEGFGVPRHDPLPDPLKVPPPLPDPSSICMVDPEMLPPKTARQ
As for B3, the binding result in test [9] was “binds”.

B4: GFP-fused RASSF1A fragment F1 (amino acids 1-151) (domain or fragment, UniProt Q9NS23-2 1-151)
chain: MSGEPELIELRELAPAGRAGKGRTRLERANALRIARGTACNPTRQLVPGRGHRFQPAGPATHTWCDLCGDFIWGVVRKGLQCAHCKFTCHYRCRALVCLDCCGPRDLGWEPAVERDTNVDEPVEWETPDLSQAEIEQKIKEYNAQINSNLF
With B4, in test [3], the binding result was “binds”.

B5: GFP-fused RASSF1A fragment F3 (RA domain, amino acids 187-287) (domain or fragment, UniProt Q9NS23-2 187-287)
chain: DARRGPGRGTSVRRRTSFYLPKDAVKHLHVLSRTRAREVIEALLRKFLVVDDPRKFALFERAERHGQVYLRKLLDDEQPLRLRLLAGPSDKALSFVLKEND
With B5, the binding entry in test [10] is on record as “binds”.

B6: HA-RASSF1A∆ (RASSF1A with the RA domain deleted) (protein, UniProt Q9NS23-2)
chain: MSGEPELIELRELAPAGRAGKGRTRLERANALRIARGTACNPTRQLVPGRGHRFQPAGPATHTWCDLCGDFIWGVVRKGLQCAHCKFTCHYRCRALVCLDCCGPRDLGWEPAVERDTNVDEPVEWETPDLSQAEIEQKIKEYNAQINSNLFMSLNKDGSYTGFIKVQLKLVRPVSVPSSKKPPSLQSGEVNWDAFSMPELHNFLRILQREEEEHLRQILQKYSYCRQKIQEALHACPLG
With B6, the binding result is “binds” in test [6] and “no binding” in test [8].
